This data set in a line: general procedure: Boc solid-phase peptide synthesis; PAM resin or thioester-generating resin; HBTU (in situ neutralization). As to conditions: coupling step.

For “Phe-Gly-Gly thioester + Nα-1-(2,4-methoxyphenyl)-2-mercaptoethane glycine-SYRFL”, the step yield is reported as greater than 98%. Under “TBP-A 1-67 (His) thioester + auxiliary II GSYRFL” stands 87%. Under “MCP1 1-35 (Lys) thioester + auxiliary I GSYRFL” stands 76%; under “Mouse Larc 1-31 (Ala) thioester + auxiliary II GSYRFL”, 85%. Substance “Mouse Larc 1-31 (Ala) thioester + auxiliary I GSYRFL” gave a step yield of 92%. Under “Phe-Gly-Gly thioester + Nα-1-(4-methoxyphenyl)-2-mercaptoethane glycine-SYRFL” stands greater than 98%.

These data come from patent US20040138412 (published 2004).
